{
  "source": "patent US20070275944A1",
  "about": "“Antioxidants and methods of their use” (The Board of Trustees Operating Michigan State University, priority 2006, published 2007)",
  "system": "mouse brain, dopaminergic neurons",
  "test": "MRI imaging of mouse brain after injection of tracer",
  "type": "in vivo",
  "excerpt": "The central figure is a chimera directly comparing the left hemisphere of the control with the right hemisphere of the TP-TEMPO treated. In this central image the “Y” shaped region (1) is where the dopaminergic neurons are found.\nWith its dependence on the more biologically variable parameters of proton density, longitudinal relaxation time (T1), and transverse relaxation time (T2), variable image contrast can be achieved by using different pulse sequences and by changing the imaging parameters. Signal intensities on T1, T2, and proton density-weighted images relate to specific tissue characteristics. Moreover, with MRI's multi-planar capability, the imaging plane can be optimized for the anatomic area being studied, and the relationship of lesions to eloquent areas of the brain can be defined more accurately. Since T2-weighted images are most sensitive for detecting brain pathology, patients with suspected intracranial disease are typically screened using the T2-weighted regime. However, it has proven difficult to apply MRI to Parkinson's disease, as the dompaminergic neurons have the same MRI characteristics as the surrounding tissues, so that the Parkinson's lesions are invisible using conventional MRI and can only be detected using histology post-mortem. […]",
  "data": [
    {"smiles": "CN1CC=C(C2CC(C)(C)N(O)C(C)(C)C2)CC1", "note": "[TP-TEMPO, 2,2,6,6-tetramethyl-4-(1-methyl-1,2,3,6-tetrahydropyridin-4-yl)piperidin-1-oxyl]", "values": [
      {"measurement": "time after administration of optimal signal to noise ratio", "setting": "mice imaged at 24, 48 and 72 hours after injection", "result": 48, "unit": "h"},
      {"measurement": "MRI images of brain, proton-water MRI signals", "setting": "mice, 24 hours after injection", "result": "unable to show any proton-water MRI signals"}
    ]}
  ]
}
